Experiment: Odor description (olfactory evaluation)

**Q.** Which Odor description does the source give for `CCCCCCC/C=C/C(C)CC=O` (centres unmarked) [(E)-3-methyl-4-dodecenal] here?
**A.** The Odor description was “aldehydic, citrus-related, slightly carrot”.

**Q.** For `CCCCCCC/C=C(\C)CCC=O` [(E)-4-methyl-4-dodecenal, (E)-4-Methyl-4-dodecenal], which Odor description is on record?
**A.** Its Odor description is “aldehydic, orange, mandarin, slightly woody”.

From US8399399B2, “3- and 4-methyl dodecenal and their use in fragrance and flavour compositions” (Givaudan SA, priority 2005, dated 2013)
